Assay results as given in the supplement of paper PMC10849652.
The other results are listed elsewhere or left out.

By UniProt entry, the sequences of proteins in these tests, tags left out. Where a name states a change or a piece, a line headed by the entry shows the natural chain unless it says otherwise.
UniProt Q9HD20: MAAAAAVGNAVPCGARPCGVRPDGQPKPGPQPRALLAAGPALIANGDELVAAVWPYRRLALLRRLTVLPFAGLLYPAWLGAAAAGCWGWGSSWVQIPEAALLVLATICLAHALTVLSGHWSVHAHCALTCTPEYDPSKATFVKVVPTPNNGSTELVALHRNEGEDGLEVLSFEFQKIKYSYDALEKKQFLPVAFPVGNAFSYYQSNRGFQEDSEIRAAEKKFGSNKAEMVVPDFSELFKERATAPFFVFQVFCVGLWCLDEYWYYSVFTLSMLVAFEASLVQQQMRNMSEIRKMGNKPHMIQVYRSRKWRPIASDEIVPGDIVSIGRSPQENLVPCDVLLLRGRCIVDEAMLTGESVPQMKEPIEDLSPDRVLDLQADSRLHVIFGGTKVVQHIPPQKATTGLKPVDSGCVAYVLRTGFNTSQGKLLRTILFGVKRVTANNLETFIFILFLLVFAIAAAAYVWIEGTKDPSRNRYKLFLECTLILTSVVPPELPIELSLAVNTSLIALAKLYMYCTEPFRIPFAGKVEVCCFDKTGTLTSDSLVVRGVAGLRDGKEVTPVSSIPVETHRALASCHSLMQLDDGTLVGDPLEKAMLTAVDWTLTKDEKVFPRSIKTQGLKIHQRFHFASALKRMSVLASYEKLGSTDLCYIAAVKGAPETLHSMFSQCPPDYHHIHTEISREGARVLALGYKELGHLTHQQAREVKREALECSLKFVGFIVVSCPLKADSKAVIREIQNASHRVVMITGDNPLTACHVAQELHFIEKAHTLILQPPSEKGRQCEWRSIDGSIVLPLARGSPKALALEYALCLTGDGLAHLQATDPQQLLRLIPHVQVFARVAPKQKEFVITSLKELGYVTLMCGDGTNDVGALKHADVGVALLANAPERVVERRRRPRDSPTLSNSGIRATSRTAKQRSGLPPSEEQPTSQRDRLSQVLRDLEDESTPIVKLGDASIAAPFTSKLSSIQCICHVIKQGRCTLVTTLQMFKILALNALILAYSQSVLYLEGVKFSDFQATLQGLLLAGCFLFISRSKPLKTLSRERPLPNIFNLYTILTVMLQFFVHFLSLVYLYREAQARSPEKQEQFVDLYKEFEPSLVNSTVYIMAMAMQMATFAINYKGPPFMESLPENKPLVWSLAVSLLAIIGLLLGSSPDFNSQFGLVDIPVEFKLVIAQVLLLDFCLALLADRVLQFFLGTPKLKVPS
UniProt P30049: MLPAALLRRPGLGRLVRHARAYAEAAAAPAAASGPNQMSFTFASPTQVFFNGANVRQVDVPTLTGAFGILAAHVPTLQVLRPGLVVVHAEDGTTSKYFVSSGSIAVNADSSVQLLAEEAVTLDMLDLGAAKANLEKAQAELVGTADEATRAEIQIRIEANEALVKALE
UniProt Q9Y6H3: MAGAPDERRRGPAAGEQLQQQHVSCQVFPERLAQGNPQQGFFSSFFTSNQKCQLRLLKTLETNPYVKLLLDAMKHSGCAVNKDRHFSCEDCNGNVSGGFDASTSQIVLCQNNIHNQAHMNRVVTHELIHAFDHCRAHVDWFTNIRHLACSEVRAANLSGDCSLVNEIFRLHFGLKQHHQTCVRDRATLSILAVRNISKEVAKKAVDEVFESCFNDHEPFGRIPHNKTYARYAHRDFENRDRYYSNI
UniProt P25311: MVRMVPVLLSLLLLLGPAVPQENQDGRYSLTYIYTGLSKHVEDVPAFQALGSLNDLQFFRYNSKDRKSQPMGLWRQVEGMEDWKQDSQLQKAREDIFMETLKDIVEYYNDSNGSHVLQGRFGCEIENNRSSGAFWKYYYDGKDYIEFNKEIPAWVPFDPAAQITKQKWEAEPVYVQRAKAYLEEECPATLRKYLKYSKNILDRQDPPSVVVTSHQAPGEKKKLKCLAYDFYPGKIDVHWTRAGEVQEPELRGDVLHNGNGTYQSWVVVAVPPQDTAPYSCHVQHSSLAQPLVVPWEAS
UniProt Q9UBL3, whole entry, looked up: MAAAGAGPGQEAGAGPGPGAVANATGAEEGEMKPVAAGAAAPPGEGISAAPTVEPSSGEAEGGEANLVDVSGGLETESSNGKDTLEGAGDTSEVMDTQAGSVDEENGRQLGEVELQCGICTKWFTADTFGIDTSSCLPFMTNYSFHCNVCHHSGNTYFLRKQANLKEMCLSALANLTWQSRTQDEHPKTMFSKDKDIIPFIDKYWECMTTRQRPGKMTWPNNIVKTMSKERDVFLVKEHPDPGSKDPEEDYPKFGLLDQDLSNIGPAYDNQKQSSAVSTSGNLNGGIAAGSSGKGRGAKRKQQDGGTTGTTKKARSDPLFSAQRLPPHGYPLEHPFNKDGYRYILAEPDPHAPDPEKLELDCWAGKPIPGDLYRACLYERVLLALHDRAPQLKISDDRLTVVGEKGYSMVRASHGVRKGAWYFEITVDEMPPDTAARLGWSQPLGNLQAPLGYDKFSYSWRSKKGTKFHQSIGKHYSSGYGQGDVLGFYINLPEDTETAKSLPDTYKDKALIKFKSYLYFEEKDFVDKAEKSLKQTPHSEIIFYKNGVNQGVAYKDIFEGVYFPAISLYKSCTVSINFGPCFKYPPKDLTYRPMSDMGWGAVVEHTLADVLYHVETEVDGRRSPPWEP
UniProt Q7Z3C6: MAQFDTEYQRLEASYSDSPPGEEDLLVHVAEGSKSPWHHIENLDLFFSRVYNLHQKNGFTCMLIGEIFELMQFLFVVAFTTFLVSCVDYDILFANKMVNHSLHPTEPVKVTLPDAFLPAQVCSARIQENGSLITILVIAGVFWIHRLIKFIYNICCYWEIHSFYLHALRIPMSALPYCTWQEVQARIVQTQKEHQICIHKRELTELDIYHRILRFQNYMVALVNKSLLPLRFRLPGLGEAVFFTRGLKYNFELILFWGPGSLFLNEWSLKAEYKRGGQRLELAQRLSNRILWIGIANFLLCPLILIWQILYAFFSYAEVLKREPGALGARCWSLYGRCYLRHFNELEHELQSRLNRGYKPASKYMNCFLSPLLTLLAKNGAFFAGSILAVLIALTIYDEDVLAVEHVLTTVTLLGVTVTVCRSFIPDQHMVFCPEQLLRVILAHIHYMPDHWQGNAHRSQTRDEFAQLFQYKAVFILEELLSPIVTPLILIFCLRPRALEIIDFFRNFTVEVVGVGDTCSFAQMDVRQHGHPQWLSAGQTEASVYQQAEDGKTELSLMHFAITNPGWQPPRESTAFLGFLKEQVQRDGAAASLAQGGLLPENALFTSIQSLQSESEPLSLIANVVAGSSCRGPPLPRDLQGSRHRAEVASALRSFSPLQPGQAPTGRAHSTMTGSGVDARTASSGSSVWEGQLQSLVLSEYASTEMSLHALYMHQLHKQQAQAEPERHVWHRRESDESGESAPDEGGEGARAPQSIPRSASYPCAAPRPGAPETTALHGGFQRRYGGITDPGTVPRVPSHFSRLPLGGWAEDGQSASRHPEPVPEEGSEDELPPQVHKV
UniProt Q96A05, whole entry, looked up: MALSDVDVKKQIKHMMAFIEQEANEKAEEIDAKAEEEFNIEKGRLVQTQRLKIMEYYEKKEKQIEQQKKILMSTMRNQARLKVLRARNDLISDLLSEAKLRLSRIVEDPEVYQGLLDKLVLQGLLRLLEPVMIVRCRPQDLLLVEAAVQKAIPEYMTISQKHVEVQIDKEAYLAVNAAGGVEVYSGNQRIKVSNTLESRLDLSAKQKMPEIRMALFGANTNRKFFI
UniProt P61769, whole entry, looked up: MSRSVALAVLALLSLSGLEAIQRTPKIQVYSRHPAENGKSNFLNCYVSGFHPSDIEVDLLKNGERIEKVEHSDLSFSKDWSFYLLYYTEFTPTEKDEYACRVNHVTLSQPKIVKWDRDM
UniProt P98196: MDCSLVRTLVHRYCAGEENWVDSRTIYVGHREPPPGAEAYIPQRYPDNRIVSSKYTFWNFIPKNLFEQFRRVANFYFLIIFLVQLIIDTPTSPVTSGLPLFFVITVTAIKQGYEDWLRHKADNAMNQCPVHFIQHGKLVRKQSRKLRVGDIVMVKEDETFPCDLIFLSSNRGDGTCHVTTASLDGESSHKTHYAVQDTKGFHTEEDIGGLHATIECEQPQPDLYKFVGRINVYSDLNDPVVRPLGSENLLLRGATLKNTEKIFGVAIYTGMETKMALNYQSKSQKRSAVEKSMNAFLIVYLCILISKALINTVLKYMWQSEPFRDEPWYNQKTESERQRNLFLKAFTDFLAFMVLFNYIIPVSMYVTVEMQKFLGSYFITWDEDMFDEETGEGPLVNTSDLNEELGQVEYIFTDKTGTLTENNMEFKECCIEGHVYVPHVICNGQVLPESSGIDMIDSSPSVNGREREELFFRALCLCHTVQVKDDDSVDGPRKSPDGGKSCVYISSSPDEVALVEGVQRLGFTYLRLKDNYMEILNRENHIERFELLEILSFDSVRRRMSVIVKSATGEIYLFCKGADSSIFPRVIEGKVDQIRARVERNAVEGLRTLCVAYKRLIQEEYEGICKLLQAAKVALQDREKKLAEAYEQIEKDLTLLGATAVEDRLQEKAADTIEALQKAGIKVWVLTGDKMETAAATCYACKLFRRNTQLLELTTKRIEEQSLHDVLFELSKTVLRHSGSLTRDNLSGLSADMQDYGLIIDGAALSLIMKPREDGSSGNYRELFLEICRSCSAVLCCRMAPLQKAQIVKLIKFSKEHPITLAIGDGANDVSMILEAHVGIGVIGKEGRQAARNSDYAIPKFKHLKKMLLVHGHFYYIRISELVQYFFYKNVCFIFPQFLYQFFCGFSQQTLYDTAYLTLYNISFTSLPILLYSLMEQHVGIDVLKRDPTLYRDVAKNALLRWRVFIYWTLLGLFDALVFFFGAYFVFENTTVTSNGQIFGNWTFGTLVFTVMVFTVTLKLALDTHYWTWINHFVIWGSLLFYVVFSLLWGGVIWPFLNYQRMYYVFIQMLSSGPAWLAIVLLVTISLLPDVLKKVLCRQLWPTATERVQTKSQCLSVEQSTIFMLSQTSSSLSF
UniProt P36543, whole entry, looked up: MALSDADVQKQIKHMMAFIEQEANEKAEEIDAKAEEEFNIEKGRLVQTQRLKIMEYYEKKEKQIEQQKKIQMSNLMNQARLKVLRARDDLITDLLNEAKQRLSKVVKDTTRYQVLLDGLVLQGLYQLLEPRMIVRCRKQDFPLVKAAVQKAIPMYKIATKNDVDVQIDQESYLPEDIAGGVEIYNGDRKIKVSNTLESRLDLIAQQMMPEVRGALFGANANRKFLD
UniProt P18859: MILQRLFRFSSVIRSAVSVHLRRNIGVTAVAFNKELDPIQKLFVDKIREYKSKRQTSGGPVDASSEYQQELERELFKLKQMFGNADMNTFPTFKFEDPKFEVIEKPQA
UniProt Q8WXE1: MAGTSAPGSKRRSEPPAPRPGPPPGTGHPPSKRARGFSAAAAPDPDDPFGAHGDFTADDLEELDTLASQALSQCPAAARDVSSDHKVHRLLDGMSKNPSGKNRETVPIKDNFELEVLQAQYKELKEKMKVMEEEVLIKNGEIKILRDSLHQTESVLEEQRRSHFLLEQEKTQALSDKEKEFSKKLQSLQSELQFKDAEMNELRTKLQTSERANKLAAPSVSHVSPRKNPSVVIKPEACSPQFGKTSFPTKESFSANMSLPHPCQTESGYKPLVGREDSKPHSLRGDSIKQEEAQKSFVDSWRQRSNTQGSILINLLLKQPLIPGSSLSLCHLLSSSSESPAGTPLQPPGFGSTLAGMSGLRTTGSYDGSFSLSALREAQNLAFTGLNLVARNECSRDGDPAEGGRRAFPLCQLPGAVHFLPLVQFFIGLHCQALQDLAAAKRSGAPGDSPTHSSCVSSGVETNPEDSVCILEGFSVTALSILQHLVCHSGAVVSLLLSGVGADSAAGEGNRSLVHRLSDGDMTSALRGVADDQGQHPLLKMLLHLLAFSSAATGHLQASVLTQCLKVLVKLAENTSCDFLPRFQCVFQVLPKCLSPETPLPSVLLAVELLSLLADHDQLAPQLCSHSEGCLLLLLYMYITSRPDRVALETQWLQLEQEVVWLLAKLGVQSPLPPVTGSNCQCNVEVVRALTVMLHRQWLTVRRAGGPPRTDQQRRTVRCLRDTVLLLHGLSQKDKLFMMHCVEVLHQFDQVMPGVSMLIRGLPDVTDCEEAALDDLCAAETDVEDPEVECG
UniProt P21281, whole entry, looked up: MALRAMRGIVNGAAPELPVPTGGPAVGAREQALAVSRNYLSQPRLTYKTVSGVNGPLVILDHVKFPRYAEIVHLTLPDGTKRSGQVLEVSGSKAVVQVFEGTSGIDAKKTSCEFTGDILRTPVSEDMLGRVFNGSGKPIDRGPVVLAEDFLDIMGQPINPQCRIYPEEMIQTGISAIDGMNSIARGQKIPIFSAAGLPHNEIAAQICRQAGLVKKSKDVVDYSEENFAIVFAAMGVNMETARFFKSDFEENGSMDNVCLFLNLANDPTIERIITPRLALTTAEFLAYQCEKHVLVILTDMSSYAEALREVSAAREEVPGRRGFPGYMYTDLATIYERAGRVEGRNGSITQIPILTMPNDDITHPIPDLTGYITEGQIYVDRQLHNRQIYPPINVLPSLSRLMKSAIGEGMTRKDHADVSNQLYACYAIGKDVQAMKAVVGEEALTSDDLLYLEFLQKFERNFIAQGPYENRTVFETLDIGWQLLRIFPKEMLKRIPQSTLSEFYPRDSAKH

Compound: C/C(=N\NC(=O)C1=CC(=CC=C1)S(=O)(=O)N2CCOCC2)/C3=C(C=CC(=C3)Cl)O
Assay: log2 fold change, soluble protein after heating vs DMSO (PISA); higher = thermal stabilisation; K562 lysate, 10 uM; active = over 0.2 and 3.5 SD of the protein, either way, in both replicates (recomputed)
Procedure, shortened: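 Following dounce homogenisation of K562 pellets in PBS pH 7.4 with 1 mM MgCl2, crude extract at 1 mg/mL protein was incubated for 30 min with 10 μM compound. Aliquots were then heated for 3 min over 48°C-58°C and pooled, NP-40 was added to 0.5% at 4°C, and soluble protein was recovered as the supernatant at 21,000xg for 90 min. Channel-sum-equalised TMTpro 16plex LC-MS/MS quantified this protein. Each value, from duplicates, is a log-two fold change in thermal stability relative to solvent controls.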

log2 fold change, inactive:
B3GLCT (UniProt Q6Y288) -0.07
ATP13A1 (UniProt Q9HD20) -0.09
ATP5F1C (UniProt P36542) 0.009
ATP2B4 (UniProt P23634) 0.023
ATP5F1D (UniProt P30049) 0.035
ATP23 (UniProt Q9Y6H3) 0.125
ATXN3 isoform 1 (UniProt P54252) -0.02
AZGP1 (UniProt P25311) 0.29
ASH2L (UniProt Q9UBL3) -0.004
ATG9A (UniProt Q7Z3C6) 0.028
ATP6V1E2 (UniProt Q96A05) -0.025
ATP1A1 (UniProt P05023) 0.031
ATG101 (UniProt Q9BSB4) 0.009
B2M (UniProt P61769) 0.035
ASB6 (UniProt Q9NWX5) -0.311
ATP11A (UniProt P98196) -0.067
ATP6V1E1 (UniProt P36543) 0.088
ATP5PF isoform 2 (UniProt P18859) 0.107
ATP13A2 (UniProt Q9NQ11) 0
ATG7 (UniProt O95352) 0.113
ATRIP (UniProt Q8WXE1) 0.032
AVL9 (UniProt Q8NBF6) 0.004
ATP6V1F isoform 2 (UniProt Q16864) 0.086
ASL (UniProt P04424) 0.048
ATE1 isoform 2 (UniProt O95260) -0.01
ATP1A3 isoform 3 (UniProt P13637) -0.022
ATXN10 (UniProt Q9UBB4) -0.031
ATP6V1B2 (UniProt P21281) -0.029
ATG2A isoform 3 (UniProt Q2TAZ0) 0.089
ASF1B (UniProt Q9NVP2) -0.005
ATG4C (UniProt Q96DT6) 0.022
ATP1A4 (UniProt Q13733) 0.063
ASNA1 (UniProt O43681) -0.019
ATP5PO (UniProt P48047) 0.045

Ten consecutive entries out of the list so far, for reference:
log2 fold change, inactive:
ATP5PF isoform 2 (UniProt P18859) 0.107
ATP13A2 (UniProt Q9NQ11) 0
ATG7 (UniProt O95352) 0.113
ATRIP (UniProt Q8WXE1) 0.032
AVL9 (UniProt Q8NBF6) 0.004
ATP6V1F isoform 2 (UniProt Q16864) 0.086
ASL (UniProt P04424) 0.048
ATE1 isoform 2 (UniProt O95260) -0.01
ATP1A3 isoform 3 (UniProt P13637) -0.022
ATXN10 (UniProt Q9UBB4) -0.031
